{"source": "patent US9011862B2", "about": "“Inhibitors of the nitration of amyloid β peptides and their uses in the diagnosis and treatment of Alzheimer's disease” (Rheinische Friedrich-Wilhelms-Universität Bonn, priority 2009, dated 2015)", "tested_on": "APP/PS1 mice", "experiment": "Intracerebral injection, induction of β-amyloidosis", "assay_type": "in vivo, mouse", "details": "2.5 μl intracerebral in 2.5 month old APP/PS1 mice, analysis after 8 weeks", "data": [{"substance": "nitrated Aβ1-42: synthetic Aβ1-42 nitrated at tyrosine 10 by peroxynitrite treatment", "values": [{"measurement": "3NTyr10-Aβ immunoreactivity in brain", "result": "strong 3NTyr10-Aβ immunoreactivity"}, {"measurement": "Iba1 (microglial activation)", "result": "increase"}]}]}
